This series in a line: peptide made by a vendor (peptide synthesis; HOBt). The following applies: whole synthesis.

The record followed here is patent US8143222B2 (Washington University, priority 2007, dated 2012).

Where a sequence shows no end group, the ends are not given.

With “EIWIAQEARRIGAEFNAYYAR (SW141 sigma-2 ligand conjugated; listed as Homo sapiens)”, the “final purity (method not given)” value is given as “˜95% purity”.
